According to PMC9271913:
Results are given in words; binding and its absence hold for the method and conditions named. In cells and extracts the contact can be indirect. Some results given as binding are weak or reduced against the parent protein; the word gives no strength. Each block holds one molecule with its values, some of them ahead of it.

Amino acid sequences for entries named in this document (tags omitted). Residues count along the entry.
UniProt P62812, residues 28-455: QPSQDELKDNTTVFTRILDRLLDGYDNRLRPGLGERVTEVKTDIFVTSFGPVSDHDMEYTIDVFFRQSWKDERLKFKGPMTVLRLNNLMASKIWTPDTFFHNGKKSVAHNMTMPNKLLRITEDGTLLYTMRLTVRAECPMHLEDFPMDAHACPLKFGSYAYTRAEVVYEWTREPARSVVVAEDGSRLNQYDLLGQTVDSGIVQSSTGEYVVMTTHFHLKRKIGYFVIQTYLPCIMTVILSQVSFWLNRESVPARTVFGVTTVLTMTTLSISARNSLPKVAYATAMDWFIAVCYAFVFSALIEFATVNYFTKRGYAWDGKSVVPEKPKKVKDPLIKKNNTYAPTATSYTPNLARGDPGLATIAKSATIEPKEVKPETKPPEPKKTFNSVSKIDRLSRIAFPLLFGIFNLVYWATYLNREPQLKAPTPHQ
UniProt Q8CFI0: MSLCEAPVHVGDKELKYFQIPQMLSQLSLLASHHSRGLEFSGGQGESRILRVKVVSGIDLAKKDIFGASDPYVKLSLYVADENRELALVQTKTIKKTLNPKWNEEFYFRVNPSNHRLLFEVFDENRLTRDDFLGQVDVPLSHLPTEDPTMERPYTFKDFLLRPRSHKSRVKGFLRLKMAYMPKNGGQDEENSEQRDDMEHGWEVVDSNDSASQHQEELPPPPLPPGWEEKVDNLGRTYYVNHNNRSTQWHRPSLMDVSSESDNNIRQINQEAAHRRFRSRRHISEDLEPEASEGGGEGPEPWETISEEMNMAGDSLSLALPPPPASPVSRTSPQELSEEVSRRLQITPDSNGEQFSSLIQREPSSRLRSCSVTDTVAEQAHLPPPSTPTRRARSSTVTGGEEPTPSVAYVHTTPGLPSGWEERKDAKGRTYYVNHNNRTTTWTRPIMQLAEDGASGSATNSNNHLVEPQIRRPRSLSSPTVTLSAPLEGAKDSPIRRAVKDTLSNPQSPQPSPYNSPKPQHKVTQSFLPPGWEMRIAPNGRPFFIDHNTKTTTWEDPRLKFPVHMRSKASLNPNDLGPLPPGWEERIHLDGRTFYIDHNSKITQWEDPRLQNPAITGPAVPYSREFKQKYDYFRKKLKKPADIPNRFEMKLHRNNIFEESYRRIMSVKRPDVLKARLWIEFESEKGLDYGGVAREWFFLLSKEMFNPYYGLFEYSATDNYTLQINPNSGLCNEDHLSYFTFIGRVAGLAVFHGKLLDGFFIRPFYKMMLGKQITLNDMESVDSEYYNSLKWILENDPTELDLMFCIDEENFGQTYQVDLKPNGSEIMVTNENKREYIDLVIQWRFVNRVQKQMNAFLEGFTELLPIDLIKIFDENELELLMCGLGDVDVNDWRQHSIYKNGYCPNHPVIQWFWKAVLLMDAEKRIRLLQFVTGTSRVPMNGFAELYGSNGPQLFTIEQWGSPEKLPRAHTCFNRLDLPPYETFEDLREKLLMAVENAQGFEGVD

Assays:
Assay in all cases: co-IP; endogenous proteins in brain lysates (gentle RIPA lysis buffer) of Nedd4-2+/- and wild-type mice, with or without PTZ or Tg (2 mg/kg, 6 h); 3 ug anti-NEDD4-2, anti-RER1 or anti-GABRA1 on Protein A/G magnetic beads, 4°C overnight; immunoblot
[1] = molecular target: T1, Retention in endoplasmic reticulum 1 (Rer1), mouse (mouse (endogenous in brain)) (UniProt Q9CQU3)
T1 sequence: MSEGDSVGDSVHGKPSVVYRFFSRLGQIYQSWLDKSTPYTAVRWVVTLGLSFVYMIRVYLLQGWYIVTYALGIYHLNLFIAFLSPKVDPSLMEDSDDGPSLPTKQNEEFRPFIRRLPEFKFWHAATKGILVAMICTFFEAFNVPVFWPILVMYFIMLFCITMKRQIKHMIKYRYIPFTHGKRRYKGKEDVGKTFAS

[2] = molecular target: Gamma-aminobutyric acid receptor subunit alpha-1 (mouse (endogenous in brain)) (UniProt P62812)
[3] = molecular target: Neural precursor cell expressed developmentally downregulated gene 4-2 (Nedd4-2), mouse (mouse (endogenous in brain)) (UniProt Q8CFI0)

binding [1]: binds
Molecule: Neural precursor cell expressed developmentally downregulated gene 4-2 (Nedd4-2), mouse (from UniProt Q8CFI0 1-1004)

binding [2]: binds
binding [3]: binds
B1: Retention in endoplasmic reticulum 1 (Rer1), mouse (protein, UniProt Q9CQU3 1-196)
chain: T1 sequence
